Here are results for 5 molecules from paper PMC12579238.

This assay addresses T1, CLN7 (human (endogenous in SH-SY5Y)) (UniProt Q8NHS3).
T1 sequence: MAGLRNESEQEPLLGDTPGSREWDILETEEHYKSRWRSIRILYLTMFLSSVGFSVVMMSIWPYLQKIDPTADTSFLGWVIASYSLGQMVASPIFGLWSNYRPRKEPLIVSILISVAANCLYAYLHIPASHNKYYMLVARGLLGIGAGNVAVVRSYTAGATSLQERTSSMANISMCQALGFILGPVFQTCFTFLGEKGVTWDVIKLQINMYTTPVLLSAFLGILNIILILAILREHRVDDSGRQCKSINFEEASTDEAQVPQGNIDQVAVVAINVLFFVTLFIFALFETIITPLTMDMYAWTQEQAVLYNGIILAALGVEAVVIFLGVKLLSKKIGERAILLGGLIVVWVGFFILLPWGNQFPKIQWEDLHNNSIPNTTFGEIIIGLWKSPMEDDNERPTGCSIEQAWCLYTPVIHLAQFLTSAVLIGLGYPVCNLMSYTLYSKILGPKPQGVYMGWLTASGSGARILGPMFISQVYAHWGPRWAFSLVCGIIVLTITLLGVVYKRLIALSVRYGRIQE
Put plainly: affinity purification with mass spectrometry; endogenous CLN7 immunoprecipitated from 2.5 mg SH-SY5Y lysate with a polyclonal anti-CLN7 antibody raised against L9 (351-421aa, Proteintech) on G-sepharose beads; IgG as non-specific binding control; 4 independent replicates; cells under steady state culture conditions.

Results are given in words; binding and its absence hold for the method and conditions named. In cells and extracts the contact can be indirect. A yes stands for co-enrichment or nearness to the bait. Other partners may have been found.

B1: WDR59 (protein, UniProt Q6PJI9 1-974)
chain: MAARWSSENVVVEFRDSQATAMSVDCLGQHAVLSGRRFLYIVNLDAPFEGHRKISRQSKWDIGAVQWNPHDSFAHYFAASSNQRVDLYKWKDGSGEVGTTLQGHTRVISDLDWAVFEPDLLVTSSVDTYIYIWDIKDTRKPTVALSAVAGASQVKWNKKNANCLATSHDGDVRIWDKRKPSTAVEYLAAHLSKIHGLDWHPDSEHILATSSQDNSVKFWDYRQPRKYLNILPCQVPVWKARYTPFSNGLVTVMVPQLRRENSLLLWNVFDLNTPVHTFVGHDDVVLEFQWRKQKEGSKDYQLVTWSRDQTLRMWRVDSQMQRLCANDILDGVDEFIESISLLPEPEKTLHTEDTDHQHTASHGEEEALKEDPPRNLLEERKSDQLGLPQTLQQEFSLINVQIRNVNVEMDAADRSCTVSVHCSNHRVKMLVKFPAQYPNNAAPSFQFINPTTITSTMKAKLLKILKDTALQKVKRGQSCLEPCLRQLVSCLESFVNQEDSASSNPFALPNSVTPPLPTFARVTTAYGSYQDANIPFPRTSGARFCGAGYLVYFTRPMTMHRAVSPTEPTPRSLSALSAYHTGLIAPMKIRTEAPGNLRLYSGSPTRSEKEQVSISSFYYKERKSRRWKSKREGSDSGNRQIKAAGKVIIQDIACLLPVHKSLGELYILNVNDIQETCQKNAASALLVGRKDLVQVWSLATVATDLCLGPKSDPDLETPWARHPFGRQLLESLLAHYCRLRDVQTLAMLCSVFEAQSRPQGLPNPFGPFPNRSSNLVVSHSRYPSFTSSGSCSSMSDPGLNTGGWNIAGREAEHLSSPWGESSPEELRFGSLTYSDPRERERDQHDKNKRLLDPANTQQFDDFKKCYGEILYRWGLREKRAEVLKFVSCPPDPHKGIEFGVYCSHCRSEVRGTQCAICKGFTFQCAICHVAVRGSSNFCLTCGHGGHTSHMMEWFRTQEVCPTGCGCHCLLESTF
B1: the binding result is listed as “binds”.

B2: WDR35 (protein, UniProt Q9P2L0 1-1181)
chain: MFFYLSKKISIPNNVKLQCVSWNKEQGFIACGGEDGLLKVLKLETQTDDAKLRGLAAPSNLSMNQTLEGHSGSVQVVTWNEQYQKLTTSDENGLIIVWMLYKGSWIEEMINNRNKSVVRSMSWNADGQKICIVYEDGAVIVGSVDGNRIWGKDLKGIQLSHVTWSADSKVLLFGMANGEIHIYDNQGNFMIKMKLSCLVNVTGAISIAGIHWYHGTEGYVEPDCPCLAVCFDNGRCQIMRHENDQNPVLIDTGMYVVGIQWNHMGSVLAVAGFQKAAMQDKDVNIVQFYTPFGEHLGTLKVPGKEISALSWEGGGLKIALAVDSFIYFANIRPNYKWGYCSNTVVYAYTRPDRPEYCVVFWDTKNNEKYVKYVKGLISITTCGDFCILATKADENHPQEENEMETFGATFVLVLCNSIGTPLDPKYIDIVPLFVAMTKTHVIAASKEAFYTWQYRVAKKLTALEINQITRSRKEGRERIYHVDDTPSGSMDGVLDYSKTIQGTRDPICAITASDKILIVGRESGTIQRYSLPNVGLIQKYSLNCRAYQLSLNCNSSRLAIIDISGVLTFFDLDARVTDSTGQQVVGELLKLERRDVWDMKWAKDNPDLFAMMEKTRMYVFRNLDPEEPIQTSGYICNFEDLEIKSVLLDEILKDPEHPNKDYLINFEIRSLRDSRALIEKVGIKDASQFIEDNPHPRLWRLLAEAALQKLDLYTAEQAFVRCKDYQGIKFVKRLGKLLSESMKQAEVVGYFGRFEEAERTYLEMDRRDLAIGLRLKLGDWFRVLQLLKTGSGDADDSLLEQANNAIGDYFADRQKWLNAVQYYVQGRNQERLAECYYMLEDYEGLENLAISLPENHKLLPEIAQMFVRVGMCEQAVTAFLKCSQPKAAVDTCVHLNQWNKAVELAKNHSMKEIGSLLARYASHLLEKNKTLDAIELYRKANYFFDAAKLMFKIADEEAKKGSKPLRVKKLYVLSALLIEQYHEQMKNAQRGKVKGKSSEATSALAGLLEEEVLSTTDRFTDNAWRGAEAYHFFILAQRQLYEGCVDTALKTALHLKDYEDIIPPVEIYSLLALCACASRAFGTCSKAFIKLKSLETLSSEQKQQYEDLALEIFTKHTSKDNRKPELDSLMEGGEGKLPTCVATGSPITEYQFWMCSVCKHGVLAQEISHYSFCPLCHSPVG
Take B2: the binding entry is listed as “binds”.

B3: WDR3 (protein, UniProt Q9UNX4 1-943)
chain: MGLTKQYLRYVASAVFGVIGSQKGNIVFVTLRGEKGRYVAVPACEHVFIWDLRKGEKILILQGLKQEVTCLCPSPDGLHLAVGYEDGSIRIFSLLSGEGNVTFNGHKAAITTLKYDQLGGRLASGSKDTDIIVWDVINESGLYRLKGHKDAITQALFLREKNLLVTSGKDTMVKWWDLDTQHCFKTMVGHRTEVWGLVLLSEEKRLITGASDSELRVWDIAYLQEIEDPEEPDPKKIKGSSPGIQDTLEAEDGAFETDEAPEDRILSCRKAGSIMREGRDRVVNLAVDKTGRILACHGTDSVLELFCILSKKEIQKKMDKKMKKARKKAKLHSSKGEEEDPEVNVEMSLQDEIQRVTNIKTSAKIKSFDLIHSPHGELKAVFLLQNNLVELYSLNPSLPTPQPVRTSRITIGGHRSDVRTLSFSSDNIAVLSAAADSIKIWNRSTLQCIRTMTCEYALCSFFVPGDRQVVIGTKTGKLQLYDLASGNLLETIDAHDGALWSMSLSPDQRGFVTGGADKSVKFWDFELVKDENSTQKRLSVKQTRTLQLDEDVLCVSYSPNQKLLAVSLLDCTVKIFYVDTLKFFLSLYGHKLPVICMDISHDGALIATGSADRNVKIWGLDFGDCHKSLFAHDDSVMYLQFVPKSHLFFTAGKDHKIKQWDADKFEHIQTLEGHHQEIWCLAVSPSGDYVVSSSHDKSLRLWERTREPLILEEEREMEREAEYEESVAKEDQPAVPGETQGDSYFTGKKTIETVKAAERIMEAIELYREETAKMKEHKAICKAAGKEVPLPSNPILMAYGSISPSAYVLEIFKGIKSSELEESLLVLPFSYVPDILKLFNEFIQLGSDVELICRCLFFLLRIHFGQITSNQMLVPVIEKLRETTISKVSQVRDVIGFNMAGLDYLKRECEAKSEVMFFADATSHLEEKKRKRKKREKLILTLT
On to B3, for which the binding result is “binds”.

B4: YTHDC2 (protein, UniProt Q9H6S0 1-1430)
chain: MSRPSSVSPRQPAPGGGGGGGPSPCGPGGGGRAKGLKDIRIDEEVKIAVNIALERFRYGDQREMEFPSSLTSTERAFIHRLSQSLGLVSKSKGKGANRYLTVKKKDGSETAHAMMTCNLTHNTKHAVRSLIQRFPVTNKERTELLPKTERGNVFAVEAENREMSKTSGRLNNGIPQIPVKRGESEFDSFRQSLPVFEKQEEIVKIIKENKVVLIVGETGSGKTTQIPQFLLDDCFKNGIPCRIFCTQPRRLAAIAVAERVAAERRERIGQTIGYQIRLESRVSPKTLLTFCTNGVLLRTLMAGDSTLSTVTHVIVDEVHERDRFSDFLLTKLRDLLQKHPTLKLILSSAALDVNLFIRYFGSCPVIYIQGRPFEVKEMFLEDILRTTGYTNKEMLKYKKEKQQEEKQQTTLTEWYSAQENSFKPESQRQRTVLNVTDEYDLLDDGGDAVFSQLTEKDVNCLEPWLIKEMDACLSDIWLHKDIDAFAQVFHLILTENVSVDYRHSETSATALMVAAGRGFASQVEQLISMGANVHSKASNGWMALDWAKHFGQTEIVDLLESYSATLEFGNLDESSLVQTNGSDLSAEDRELLKAYHHSFDDEKVDLDLIMHLLYNICHSCDAGAVLIFLPGYDEIVGLRDRILFDDKRFADSTHRYQVFMLHSNMQTSDQKKVLKNPPAGVRKIILSTNIAETSITVNDVVFVIDSGKVKEKSFDALNFVTMLKMVWISKASAIQRKGRAGRCRPGICFRLFSRLRFQNMLEFQTPELLRMPLQELCLHTKLLAPVNCPIADFLMKAPEPPPALIVRNAVQMLKTIDAMDTWEDLTELGYHLADLPVEPHLGKMVLCAVVLKCLDPILTIACTLAYRDPFVLPTQASQKRAAMLCRKRFTAGAFSDHMALLRAFQAWQKARSDGWERAFCEKNFLSQATMEIIIGMRTQLLGQLRASGFVRARGGGDIRDVNTNSENWAVVKAALVAGMYPNLVHVDRENLVLTGPKEKKVRFHPASVLSQPQYKKIPPANGQAAAIKALPTDWLIYDEMTRAHRIANIRCCSAVTPVTILVFCGPARLASNALQEPSSFRVDGIPNDSSDSEMEDKTTANLAALKLDEWLHFTLEPEAASLLLQLRQKWHSLFLRRMRAPSKPWSQVDEATIRAIIAVLSTEEQSAGLQQPSGIGQRPRPMSSEELPLASSWRSNNSRKSSADTEFSDECTTAERVLMKSPSPALHPPQKYKDRGILHPKRGTEDRSDQSSLKSTDSSSYPSPCASPSPPSSGKGSKSPSPRPNMPVRYFIMKSSNLRNLEISQQKGIWSTTPSNERKLNRAFWESSIVYLVFSVQGSGHFQGFSRMSSEIGREKSQDWGSAGLGGVFKVEWIRKESLPFQFAHHLLNPWNDNKKVQISRDGQELEPLVGEQLLQLWERLPLGEKNTTD
For B4, the binding result was “binds”.

B5: WDR24 (protein, UniProt Q96S15 1-790)
chain: MEKMSRVTTALGGSVLTGRTMHCHLDAPANAISVCRDAAQVVVAGRSIFKIYAIEEEQFVEKLNLRVGRKPSLNLSCADVVWHQMDENLLATAATNGVVVTWNLGRPSRNKQDQLFTEHKRTVNKVCFHPTEAHVLLSGSQDGFMKCFDLRRKDSVSTFSGQSESVRDVQFSIRDYFTFASTFENGNVQLWDIRRPDRCERMFTAHNGPVFCCDWHPEDRGWLATGGRDKMVKVWDMTTHRAKEMHCVQTIASVARVKWRPECRHHLATCSMMVDHNIYVWDVRRPFVPAAMFEEHRDVTTGIAWRHPHDPSFLLSGSKDSSLCQHLFRDASQPVERANPEGLCYGLFGDLAFAAKESLVAAESGRKPYTGDRRHPIFFKRKLDPAEPFAGLASSALSVFETEPGGGGMRWFVDTAERYALAGRPLAELCDHNAKVARELGRNQVAQTWTMLRIIYCSPGLVPTANLNHSVGKGGSCGLPLMNSFNLKDMAPGLGSETRLDRSKGDARSDTVLLDSSATLITNEDNEETEGSDVPADYLLGDVEGEEDELYLLDPEHAHPEDPECVLPQEAFPLRHEIVDTPPGPEHLQDKADSPHVSGSEADVASLAPVDSSFSLLSVSHALYDSRLPPDFFGVLVRDMLHFYAEQGDVQMAVSVLIVLGERVRKDIDEQTQEHWYTSYIDLLQRFRLWNVSNEVVKLSTSRAVSCLNQASTTLHVNCSHCKRPMSSRGWVCDRCHRCASMCAVCHHVVKGLFVWCQGCSHGGHLQHIMKWLEGSSHCPAGCGHLCEYS
Consider B5, for which the binding result is on record as “binds”.
